Source: PMC7181751
These are yes or no findings as the source states them, for the method shown. In cells and extracts the contact can be indirect. Some results given as binding are weak or reduced against the parent protein; the word gives no strength. For part of these data: Tags and fused reporters may be left off the sequences shown.

Sequences of proteins named here, by UniProt entry; tags and fusion partners are left off. Residues count along the entry.
UniProt P56726, residues 33-793: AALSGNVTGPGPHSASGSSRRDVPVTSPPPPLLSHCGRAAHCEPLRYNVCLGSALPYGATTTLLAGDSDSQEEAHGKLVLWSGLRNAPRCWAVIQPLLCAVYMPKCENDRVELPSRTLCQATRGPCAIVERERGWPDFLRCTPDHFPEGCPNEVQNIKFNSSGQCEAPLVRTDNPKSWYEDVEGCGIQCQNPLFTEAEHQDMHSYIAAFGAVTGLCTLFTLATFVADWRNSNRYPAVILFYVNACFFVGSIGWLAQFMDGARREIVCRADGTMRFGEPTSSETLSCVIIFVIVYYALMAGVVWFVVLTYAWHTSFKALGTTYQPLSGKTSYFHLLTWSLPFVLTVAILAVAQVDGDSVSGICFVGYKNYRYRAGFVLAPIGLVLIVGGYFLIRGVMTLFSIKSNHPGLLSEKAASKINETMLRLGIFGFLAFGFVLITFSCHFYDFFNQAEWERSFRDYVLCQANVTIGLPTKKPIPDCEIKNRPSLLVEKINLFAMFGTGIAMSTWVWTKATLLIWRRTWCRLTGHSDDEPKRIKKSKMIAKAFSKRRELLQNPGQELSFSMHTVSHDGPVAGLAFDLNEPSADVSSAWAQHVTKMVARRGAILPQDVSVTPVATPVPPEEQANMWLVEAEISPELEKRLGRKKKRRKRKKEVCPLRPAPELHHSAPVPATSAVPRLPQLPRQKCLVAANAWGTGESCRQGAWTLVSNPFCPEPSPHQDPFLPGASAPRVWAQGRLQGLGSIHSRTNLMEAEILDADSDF

How the values were obtained:
[1] = biological target: T1, mouse Ptch2, Myc-tagged (pCMV6-mPtch2-MycDDK) (mouse) (UniProt O35595); experiment: co-IP; NIH3T3/Cas9 Gas1 KO cells transfected with Myc-tagged Ptch2, without and with Shh for 40 min; IP with anti-Myc antibody, Western blot
T1 sequence: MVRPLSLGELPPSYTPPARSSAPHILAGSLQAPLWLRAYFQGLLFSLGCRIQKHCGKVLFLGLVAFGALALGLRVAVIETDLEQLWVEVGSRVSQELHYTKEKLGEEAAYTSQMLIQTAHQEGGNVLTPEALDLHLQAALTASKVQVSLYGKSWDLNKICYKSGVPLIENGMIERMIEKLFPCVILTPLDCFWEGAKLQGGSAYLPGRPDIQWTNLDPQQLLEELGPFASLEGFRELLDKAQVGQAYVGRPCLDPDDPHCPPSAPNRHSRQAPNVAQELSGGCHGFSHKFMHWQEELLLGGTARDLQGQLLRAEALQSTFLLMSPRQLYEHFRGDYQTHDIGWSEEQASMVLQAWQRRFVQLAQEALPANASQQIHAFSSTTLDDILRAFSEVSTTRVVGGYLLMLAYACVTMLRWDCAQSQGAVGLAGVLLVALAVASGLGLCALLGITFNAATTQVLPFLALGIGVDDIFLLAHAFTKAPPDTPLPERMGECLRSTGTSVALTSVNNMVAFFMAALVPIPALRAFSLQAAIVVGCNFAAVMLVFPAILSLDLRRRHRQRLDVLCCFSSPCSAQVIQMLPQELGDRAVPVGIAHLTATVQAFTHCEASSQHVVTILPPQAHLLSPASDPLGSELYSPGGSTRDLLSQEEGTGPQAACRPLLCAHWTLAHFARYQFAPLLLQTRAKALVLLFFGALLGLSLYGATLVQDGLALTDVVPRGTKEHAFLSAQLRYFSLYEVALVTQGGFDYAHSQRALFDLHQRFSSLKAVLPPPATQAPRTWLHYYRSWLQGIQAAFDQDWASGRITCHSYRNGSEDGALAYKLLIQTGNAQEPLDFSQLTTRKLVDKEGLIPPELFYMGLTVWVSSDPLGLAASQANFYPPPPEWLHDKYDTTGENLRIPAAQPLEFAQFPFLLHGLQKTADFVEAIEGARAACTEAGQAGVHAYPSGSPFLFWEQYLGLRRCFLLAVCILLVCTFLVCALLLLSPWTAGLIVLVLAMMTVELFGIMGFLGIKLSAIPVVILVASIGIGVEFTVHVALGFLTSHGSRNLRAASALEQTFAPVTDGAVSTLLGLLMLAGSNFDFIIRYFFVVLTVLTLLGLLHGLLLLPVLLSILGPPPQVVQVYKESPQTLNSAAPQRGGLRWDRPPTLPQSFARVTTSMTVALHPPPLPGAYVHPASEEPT

[2] = biological target: T2, mouse Ptch1 (pcDNA3-mPtch1) (mouse) (UniProt Q61115); experiment: co-IP; NIH3T3/Cas9 Ptch1 KO cells transfected with mouse Ptch1, unstimulated and 40 min after Shh (partial release at 40 min); IP of Ptch1 and reciprocal IP of endogenous Boc, Western blot
T2 sequence: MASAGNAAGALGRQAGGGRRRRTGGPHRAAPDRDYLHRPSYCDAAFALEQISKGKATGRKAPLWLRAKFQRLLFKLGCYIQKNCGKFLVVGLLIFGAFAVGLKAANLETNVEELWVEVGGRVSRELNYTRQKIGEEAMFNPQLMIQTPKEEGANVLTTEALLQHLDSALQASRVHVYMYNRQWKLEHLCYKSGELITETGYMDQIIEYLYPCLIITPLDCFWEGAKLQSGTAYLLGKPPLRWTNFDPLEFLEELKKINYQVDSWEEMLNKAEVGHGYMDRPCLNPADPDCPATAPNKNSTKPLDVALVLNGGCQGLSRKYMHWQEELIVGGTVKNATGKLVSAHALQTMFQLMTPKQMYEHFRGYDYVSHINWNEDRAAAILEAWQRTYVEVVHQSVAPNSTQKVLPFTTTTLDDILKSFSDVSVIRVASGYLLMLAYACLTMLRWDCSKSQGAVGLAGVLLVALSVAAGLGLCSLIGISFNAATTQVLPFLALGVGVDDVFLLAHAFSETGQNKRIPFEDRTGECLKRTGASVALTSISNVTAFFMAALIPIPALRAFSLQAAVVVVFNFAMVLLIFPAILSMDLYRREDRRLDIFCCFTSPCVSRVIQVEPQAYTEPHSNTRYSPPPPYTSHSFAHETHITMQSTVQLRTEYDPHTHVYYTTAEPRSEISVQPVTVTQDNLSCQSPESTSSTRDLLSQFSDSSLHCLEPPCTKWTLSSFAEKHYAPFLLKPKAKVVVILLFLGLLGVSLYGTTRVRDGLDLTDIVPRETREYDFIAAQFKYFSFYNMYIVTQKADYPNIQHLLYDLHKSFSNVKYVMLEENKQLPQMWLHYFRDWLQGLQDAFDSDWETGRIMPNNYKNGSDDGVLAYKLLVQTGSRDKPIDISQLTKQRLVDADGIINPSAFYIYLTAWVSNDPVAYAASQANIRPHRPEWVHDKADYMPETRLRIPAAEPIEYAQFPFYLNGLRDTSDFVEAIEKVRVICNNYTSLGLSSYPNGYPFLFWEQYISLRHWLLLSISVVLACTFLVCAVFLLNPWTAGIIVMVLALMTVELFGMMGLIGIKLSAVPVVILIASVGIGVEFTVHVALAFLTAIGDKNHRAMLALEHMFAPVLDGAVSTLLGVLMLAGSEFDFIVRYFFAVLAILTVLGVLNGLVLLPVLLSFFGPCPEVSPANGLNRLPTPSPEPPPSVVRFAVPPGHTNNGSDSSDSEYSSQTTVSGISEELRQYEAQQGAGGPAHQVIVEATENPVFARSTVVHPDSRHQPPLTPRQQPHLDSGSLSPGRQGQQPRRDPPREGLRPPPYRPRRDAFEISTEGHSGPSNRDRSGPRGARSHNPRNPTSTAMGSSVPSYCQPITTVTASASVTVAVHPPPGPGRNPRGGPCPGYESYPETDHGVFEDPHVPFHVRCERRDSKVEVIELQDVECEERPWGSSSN

[3] = biological target: T1, mouse Ptch2, Myc-tagged (pCMV6-mPtch2-MycDDK) (mouse); experiment: co-IP; NIH3T3/Cas9 Ptch1 KO cells transfected with Myc-tagged Ptch2, unstimulated (no Shh); IP of Ptch2 and reciprocal IP with antibody against endogenous Gas1, Western blot; lysis in 50 mM HEPES, 150 mM NaCl, 10% glycerol, 1% Nonidet P-40, 1 mM EDTA; protein A/G-agarose

Measured: binding

Smoothened (Smo), endogenous (from UniProt P56726 33-793) (receptor)
binds: all assays above
